# Test results from the supplement of paper PMC9135407.
# “And” between values parts separate entries of the source, which are not always exact repeats. Equal values may be shown once. Where a name gives a salt, the structure may show the parent alone. ± gives the standard deviation of the averaged measurements. The list shows a part of the results. Plates or batches differ in their baseline, so values are only roughly comparable.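 Primary human stellate myofibroblasts activated in culture; inactivation shown by regained lipid droplets. Readout: fraction of Hoechst-counted cells exceeding a per-plate Bodipy threshold, duplicate wells, each plate with DMSO negative and nortriptyline positive controls. Hits: control-normalized score beyond the plate's top-tenth-percentile nortriptyline wells, or among its three best wells. Final well concentrations unstated.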
# System: primary human hepatic stellate cells (donor 1)
# Assay: percent Bodipy-positive cells; higher = more lipid droplet accumulation
# Conditions: 48 h
# [1] = library stock concentration: 3.33 mM
# [2] = library stock concentration: 10 mM
# [3] = library stock concentration: 80 uM
# [4] = library stock concentration: 400 uM
# [5] = library stock concentration: 2 mM
# [6] = library stock concentration: 7.5 mM
smiles,measurement,setting,value
CCCCc1oc2ccc(NS(C)(=O)=O)cc2c1C(=O)c1ccc(OCCCN(CCCC)CCCC)cc1 [Dronedarone HCl],percent Bodipy-positive cells,[1],97.1 ± 1.5%
same,percent Bodipy-positive cells,[2],96 ± 5.7%
N#Cc1ccc2c(c1)N(CCCN1CCC(O)CC1)c1ccccc1S2 [Periciazine],percent Bodipy-positive cells,[2],64.3 ± 17%
COC(=O)N[C@H](C(=O)N1CCC[C@H]1c1ncc(-c2ccc(-c3ccc(-c4cnc([C@@H]5CCCN5C(=O)[C@@H](NC(=O)OC)C(C)C)[nH]4)cc3)cc2)[nH]1)C(C)C,percent Bodipy-positive cells,[2],98.72 ± 0.1%
CCn1cc(-c2ccnc3[nH]c(-c4cccc(CN(C)C)c4)cc23)c(-c2ccc(NC(=O)N(C)C)cc2)n1,percent Bodipy-positive cells,[2],99.7 ± 0.42%
CCC1(c2ccccc2)C(=O)NCNC1=O,percent Bodipy-positive cells,[2],26.303 ± 0.018%
CCC1(c2ccccc2)C(=O)NCNC1=O [Primidone],percent Bodipy-positive cells,,7.8 ± 0.89%
same,percent Bodipy-positive cells,[1],10 ± 3.1%
same,percent Bodipy-positive cells,library stock concentration: 9.2 mM,23.6 ± 17%
Cc1ccc(Nc2cc(-c3cccc(N4C(=O)c5ccccc5C4=O)c3)ncn2)cc1NS(C)(=O)=O,percent Bodipy-positive cells,[3],12.9 ± 0.51%
same,percent Bodipy-positive cells,[4],12.9 ± 6.9%
same,percent Bodipy-positive cells,[5],11.4 ± 5.9%
same,percent Bodipy-positive cells,[2],17.2 ± 3%
CC(=O)OC[C@H]1O[C@@H]([S-])[C@H](OC(C)=O)[C@@H](OC(C)=O)[C@@H]1OC(C)=O.CCP(CC)CC.[Au+] [Auranofin],percent Bodipy-positive cells,[2],99.46 ± 0.76%
O=C(c1ccccc1)c1ccc(N2CCOCC2)cc1O [DNA-PK Inhibitor V],percent Bodipy-positive cells,[1],11.3 ± 0.86%
COc1cc(Nc2c(C#N)cnc3cc(OCCCN4CCN(C)CC4)c(OC)cc23)c(Cl)cc1Cl [Bosutinib (SKI-606)],percent Bodipy-positive cells,[1],37.6 ± 2%
same,percent Bodipy-positive cells,[2],92.7 ± 9%
COc1cc(Nc2c(C#N)cnc3cc(OCCCN4CCN(C)CC4)c(OC)cc23)c(Cl)cc1Cl [Bosutinib (SKI-606) (0.4 mM)],percent Bodipy-positive cells,[4],15.5 ± 2.5%
COc1cc(Nc2c(C#N)cnc3cc(OCCCN4CCN(C)CC4)c(OC)cc23)c(Cl)cc1Cl [Bosutinib (SKI-606) (10 mM)],percent Bodipy-positive cells,[2],96.8 ± 4.5%
COc1cc(Nc2c(C#N)cnc3cc(OCCCN4CCN(C)CC4)c(OC)cc23)c(Cl)cc1Cl [Bosutinib (SKI-606) (2 mM)],percent Bodipy-positive cells,[5],34.6 ± 13%
COc1cc(Nc2c(C#N)cnc3cc(OCCCN4CCN(C)CC4)c(OC)cc23)c(Cl)cc1Cl [Bosutinib],percent Bodipy-positive cells,[3],3.85 ± 1.1%
same,percent Bodipy-positive cells,[4],7.33 ± 1.9%
same,percent Bodipy-positive cells,[5],19.8 ± 1.6%
same,percent Bodipy-positive cells,[2],71.7 ± 9.8%
CNCc1cn(C2CCN(CCC(C)CC(C)(C)C)CC2)nn1 (stereo not drawn),percent Bodipy-positive cells,[2],98.55 ± 0.92%
"c(c1N)(C(=O)\N=C(\N)/N)nc(c(N2CCCCCC2)n1)Cl [5-(N,N-hexamethylene)amiloride]",percent Bodipy-positive cells,[2],100%
NC(Cn1ccc(=O)c(O)c1)C(=O)O (stereo not drawn) [Mimosine],percent Bodipy-positive cells,,32.9 ± 16%
same,percent Bodipy-positive cells,[2],23.4 ± 2%
CCOC(=O)[C@H]1O[C@@H]1C(=O)N[C@@H](CC(C)C)C(=O)NCCC(C)C [Aloxistatin],percent Bodipy-positive cells,[1],26.2 ± 3.3%
same,percent Bodipy-positive cells,[2],49.8 ± 33%
CC(CN(C)C)CN1c2ccccc2Sc2ccccc21.O=C(O)C(O)C(O)C(=O)O (stereo not drawn) [Trimeprazine tartrate],percent Bodipy-positive cells,library stock concentration: 4.5 mM,81.02 ± 0.32%
CC(C)NCC(O)COc1ccc(CC(N)=O)cc1 (stereo not drawn) [(?)-Atenolol],percent Bodipy-positive cells,[2],52.8 ± 5.6%
CC(C)NCC(O)COc1ccc(CC(N)=O)cc1 (stereo not drawn) [Atenolol],percent Bodipy-positive cells,[6],8.76% and 23.1%
same,percent Bodipy-positive cells,[2],14.3 ± 5.2%
CC(C)NCC(O)COc1ccc(CC(N)=O)cc1 (stereo not drawn),percent Bodipy-positive cells,[2],24.5 ± 1.6%
CCCCNc1ncc(C(=O)NCc2ccc(-n3ccnc3)cc2)c(NC2CCC(O)CC2)n1 (stereo not drawn),percent Bodipy-positive cells,[1],61.4 ± 2.4%
same,percent Bodipy-positive cells,[2],84.8 ± 3.2%
C=CC(=O)Nc1cccc(Sc2nc(Nc3ccc(N4CCN(C)CC4)cc3)ncc2Cl)c1,percent Bodipy-positive cells,[1],12.3 ± 3.2%
same,percent Bodipy-positive cells,[2],83.2 ± 13%
Cn1c(=O)c2c(ncn2CC2OCCO2)n(C)c1=O [Doxofylline],percent Bodipy-positive cells,[1],10.9 ± 8.3%
same,percent Bodipy-positive cells,[6],9.62 ± 0.29%
same,percent Bodipy-positive cells,[2],41 ± 17%
CCN(CC)CCCCNc1ncc2cc(-c3cc(OC)cc(OC)c3)c(NC(=O)NC(C)(C)C)nc2n1,percent Bodipy-positive cells,[5],93.7 ± 3%
same,percent Bodipy-positive cells,[2],98.14 ± 0.81%
COCC(=O)NC/C=C/c1ccc2ncnc(Nc3ccc(Oc4ccc(C)nc4)c(C)c3)c2c1,percent Bodipy-positive cells,[3],9.6 ± 2.2%
same,percent Bodipy-positive cells,[4],10.4% and 26.4%
same,percent Bodipy-positive cells,[2],20.1 ± 1.8%
CCCCC/C=C\C[C@@H](O)/C=C/C=C\C/C=C\CCCC(=O)O,percent Bodipy-positive cells,library stock concentration: 100 uM,7.14 ± 7.9%
CC(=O)N(CC(O)CO)c1c(I)c(C(=O)NCC(O)CO)c(I)c(C(=O)NCC(O)CO)c1I (stereo not drawn) [Iohexol],percent Bodipy-positive cells,,32 ± 11%
CN(CCCCCCCCCCN(C)C(=O)Oc1cccc([N+](C)(C)C)c1)C(=O)Oc1cccc([N+](C)(C)C)c1 [Demecarium bromide],percent Bodipy-positive cells,,23.3 ± 4.9%
COC(=O)Nc1nc2cc(Sc3ccccc3)ccc2[nH]1 [Fenbendazole],percent Bodipy-positive cells,,30.4 ± 2.9%
same,percent Bodipy-positive cells,[1],41.4 ± 8.1%
same,percent Bodipy-positive cells,library stock concentration: 6.7 mM,83.6% and 84%
COc1cccc(C=NCCN=Cc2cccc(OC)c2[O-])c1[O-].[Cl-].[Mn+3],percent Bodipy-positive cells,[1],10.9 ± 2.7%
same,percent Bodipy-positive cells,[2],49.2 ± 0.78%
Cc1ccc(C(=O)Nc2cccc(C(F)(F)F)c2)cc1-c1ccc2nc(NCCN3CCOCC3)ncc2c1,percent Bodipy-positive cells,[2],89.2 ± 1.4%
CC(C)NC[C@@H](C(=O)N1CCN(c2ncnc3c2[C@H](C)C[C@H]3O)CC1)c1ccc(Cl)cc1,percent Bodipy-positive cells,[3],6.606 ± 0.018%
same,percent Bodipy-positive cells,[4],8.03 ± 3.1%
same,percent Bodipy-positive cells,[5],19.6 ± 4.5%
same,percent Bodipy-positive cells,[1],31.6 ± 11%
same,percent Bodipy-positive cells,[2],51.5 ± 18%
Cc1ccc([C@@H]2O[C@H](CO)[C@@H](O)[C@H](O)[C@H]2O)cc1Cc1ccc(-c2ccc(F)cc2)s1 [Canagliflozin],percent Bodipy-positive cells,[1],17.4 ± 10%
same,percent Bodipy-positive cells,[2],27.2 ± 7.8%

# Taken from the entries so far for reference:
smiles,measurement,setting,value
COC(=O)N[C@H](C(=O)N1CCC[C@H]1c1ncc(-c2ccc(-c3ccc(-c4cnc([C@@H]5CCCN5C(=O)[C@@H](NC(=O)OC)C(C)C)[nH]4)cc3)cc2)[nH]1)C(C)C,percent Bodipy-positive cells,[2],98.72 ± 0.1%
CCn1cc(-c2ccnc3[nH]c(-c4cccc(CN(C)C)c4)cc23)c(-c2ccc(NC(=O)N(C)C)cc2)n1,percent Bodipy-positive cells,[2],99.7 ± 0.42%
CCC1(c2ccccc2)C(=O)NCNC1=O,percent Bodipy-positive cells,[2],26.303 ± 0.018%
CCC1(c2ccccc2)C(=O)NCNC1=O [Primidone],percent Bodipy-positive cells,,7.8 ± 0.89%
